{"source": "PubChem BioAssay AID1259259 (Sanger Institute, 2017)", "purpose": "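Synthetic lethal kinase partners of anchor drugs in colorectal cancer cells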 (primary screen)", "cell system": "SW1463 human colorectal cancer cells", "knock-down reagent": "siRNA pool against human genes", "treatment": "DMSO vehicle, or one anchor drug: BYL719 at 1 µM, cetuximab at 5 µg/ml, or trametinib at 10 nM", "read-out": "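Viability relative to control pool 2 (non-targeting) averaged over replicates, robust z-score for knock-down with no drug, and for each anchor drug the mean synergy score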", "reading the numbers": "robust z-score, knock-down alone: higher = more viable cells after knock-down", "call rule": "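a robust z-score under -3 for knock-down with no drug marks the gene as essential, meaning viability loss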", "calls": "active = essential: viability loss from knock-down alone; inactive = no change from knock-down alone", "note": "Shown is one part, drawn at random, of 794 reagents tested. 9 of them (1.1%) count as active. 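Calls rest on knock-down alone, not drug synergy; viability values seem capped at 1.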 Not all columns of the deposit are shown. Not stated in the record: the amount of reagent, the time to read-out."}
{"gene": "ALPK2 (GeneID 115701)", "robust z-score, knock-down alone": 0.559, "Call": "inactive"}
{"gene": "MAP3K2 (GeneID 10746)", "robust z-score, knock-down alone": 0.605, "Call": "inactive"}
{"gene": "TAF1L (GeneID 138474)", "robust z-score, knock-down alone": 0.767, "Call": "inactive"}
{"gene": "MAP4K5 (GeneID 11183)", "robust z-score, knock-down alone": 0.721, "Call": "inactive"}
{"gene": "IDH2 (GeneID 3418)", "robust z-score, knock-down alone": -0.375, "Call": "inactive"}
{"gene": "PLK2 (GeneID 10769)", "robust z-score, knock-down alone": 0.151, "Call": "inactive"}
{"gene": "AURKC (GeneID 6795)", "robust z-score, knock-down alone": 1.13, "Call": "inactive"}
{"gene": "PLK4 (GeneID 10733)", "robust z-score, knock-down alone": -0.815, "Call": "inactive"}
{"gene": "MAST3 (GeneID 23031)", "robust z-score, knock-down alone": -0.48, "Call": "inactive"}

Entries above whose gene name starts with A or a (2):
{"gene": "ALPK2 (GeneID 115701)", "robust z-score, knock-down alone": 0.559, "Call": "inactive"}
{"gene": "AURKC (GeneID 6795)", "robust z-score, knock-down alone": 1.13, "Call": "inactive"}

Further reagents follow:
{"gene": "FLT3 (GeneID 2322)", "robust z-score, knock-down alone": -0.308, "Call": "inactive"}
{"gene": "BMP2K (GeneID 55589)", "robust z-score, knock-down alone": 1.13, "Call": "inactive"}
{"gene": "PRKCD (GeneID 5580)", "robust z-score, knock-down alone": 0.108, "Call": "inactive"}
{"gene": "EPHA3 (GeneID 2042)", "robust z-score, knock-down alone": -0.643, "Call": "inactive"}
{"gene": "FGFR1 (GeneID 2260)", "robust z-score, knock-down alone": 1.13, "Call": "inactive"}
{"gene": "TGFBR2 (GeneID 7048)", "robust z-score, knock-down alone": 0.52, "Call": "inactive"}
{"gene": "NADK (GeneID 65220)", "robust z-score, knock-down alone": -0.849, "Call": "inactive"}
{"gene": "BRWD1 (GeneID 54014)", "robust z-score, knock-down alone": -0.689, "Call": "inactive"}
{"gene": "RPS6KC1 (GeneID 26750)", "robust z-score, knock-down alone": -0.804, "Call": "inactive"}
{"gene": "TJP2 (GeneID 9414)", "robust z-score, knock-down alone": -0.18, "Call": "inactive"}
